Test results: PubChem BioAssay AID926 (National Center for Advancing Translational Sciences (NCATS), 2007)
About 350 (0.48%) of roughly 73,000 compounds were called active. All entries are inconclusive by the source's own rule. Clear calls are listed elsewhere. Calls follow the shape of the dose curve; as a rule, active = well fitted activation curve with a large enough effect in the main read-out, with a control signal flat (not every such curve was filed as active); inconclusive = small, poorly fitted or top-dose-only effect, or a change in a side signal; inactive = no such curve, though single readings can be large or run the other way; reference of the percent scale not stated here.

The chains behind the UniProt entries cited, without tags or fusion partners.
UniProt P16473, whole entry: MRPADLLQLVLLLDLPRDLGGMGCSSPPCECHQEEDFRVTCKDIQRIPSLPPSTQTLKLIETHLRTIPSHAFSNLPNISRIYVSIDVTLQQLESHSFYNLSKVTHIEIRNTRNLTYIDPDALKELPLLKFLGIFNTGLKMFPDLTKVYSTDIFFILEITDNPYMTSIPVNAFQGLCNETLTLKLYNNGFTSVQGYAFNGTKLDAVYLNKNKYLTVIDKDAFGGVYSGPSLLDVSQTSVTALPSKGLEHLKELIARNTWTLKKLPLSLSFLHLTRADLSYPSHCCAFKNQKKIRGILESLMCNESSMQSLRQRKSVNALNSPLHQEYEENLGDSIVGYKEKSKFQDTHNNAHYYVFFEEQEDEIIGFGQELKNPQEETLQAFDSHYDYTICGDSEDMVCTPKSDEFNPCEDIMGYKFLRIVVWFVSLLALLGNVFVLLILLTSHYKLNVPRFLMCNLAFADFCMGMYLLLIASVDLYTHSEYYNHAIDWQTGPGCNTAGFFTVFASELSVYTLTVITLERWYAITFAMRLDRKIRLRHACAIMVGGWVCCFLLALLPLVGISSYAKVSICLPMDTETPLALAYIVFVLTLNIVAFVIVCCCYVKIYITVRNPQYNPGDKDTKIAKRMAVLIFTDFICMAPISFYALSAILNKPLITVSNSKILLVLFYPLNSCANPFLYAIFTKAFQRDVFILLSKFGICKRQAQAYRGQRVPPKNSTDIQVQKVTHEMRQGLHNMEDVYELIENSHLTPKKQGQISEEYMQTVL

target: Thyrotropin receptor (Homo sapiens) (UniProt P16473); assay: qHTS Assay for Agonists of the Thyroid Stimulating Hormone Receptor; settings: HEK293-CNG-TSHR cells (CNG channel as cAMP sensor), membrane potential dye, cAMP;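 also: the control signal comes from parental cells without the receptor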
Potency is read from the fitted curve at half-maximal effect.

SMILES | Potency
O=[N+]([O-])C(Cl)(Cl)Cl | inconclusive: 1.58 µM
